Experimental data: publication PMC9462884, “Tensin3 interaction with talin drives the formation of fibronectin-associated fibrillar adhesions” (The Journal of Cell Biology, 2022)
These are yes or no findings as the source states them, for the method shown. For part of these data: A result given as binding can be weak or reduced; the word gives no strength. For part of these data: Tags and fused reporters may be left off the sequences shown. One block for each molecule: values may come before it.

By UniProt entry, the sequences of proteins in these tests, tags left out.
UniProt Q13418: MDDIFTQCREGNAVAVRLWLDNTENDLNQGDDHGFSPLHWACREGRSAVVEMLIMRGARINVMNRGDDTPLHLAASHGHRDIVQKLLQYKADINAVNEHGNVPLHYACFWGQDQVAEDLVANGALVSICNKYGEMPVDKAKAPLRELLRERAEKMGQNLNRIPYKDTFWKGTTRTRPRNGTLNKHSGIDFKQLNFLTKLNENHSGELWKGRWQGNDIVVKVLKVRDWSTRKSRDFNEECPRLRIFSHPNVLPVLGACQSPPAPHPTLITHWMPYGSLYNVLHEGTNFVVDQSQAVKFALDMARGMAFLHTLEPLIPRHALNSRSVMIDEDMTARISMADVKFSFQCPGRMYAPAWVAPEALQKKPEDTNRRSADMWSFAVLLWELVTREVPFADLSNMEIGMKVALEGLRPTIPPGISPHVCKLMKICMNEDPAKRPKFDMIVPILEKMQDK
UniProt Q9Y4G6: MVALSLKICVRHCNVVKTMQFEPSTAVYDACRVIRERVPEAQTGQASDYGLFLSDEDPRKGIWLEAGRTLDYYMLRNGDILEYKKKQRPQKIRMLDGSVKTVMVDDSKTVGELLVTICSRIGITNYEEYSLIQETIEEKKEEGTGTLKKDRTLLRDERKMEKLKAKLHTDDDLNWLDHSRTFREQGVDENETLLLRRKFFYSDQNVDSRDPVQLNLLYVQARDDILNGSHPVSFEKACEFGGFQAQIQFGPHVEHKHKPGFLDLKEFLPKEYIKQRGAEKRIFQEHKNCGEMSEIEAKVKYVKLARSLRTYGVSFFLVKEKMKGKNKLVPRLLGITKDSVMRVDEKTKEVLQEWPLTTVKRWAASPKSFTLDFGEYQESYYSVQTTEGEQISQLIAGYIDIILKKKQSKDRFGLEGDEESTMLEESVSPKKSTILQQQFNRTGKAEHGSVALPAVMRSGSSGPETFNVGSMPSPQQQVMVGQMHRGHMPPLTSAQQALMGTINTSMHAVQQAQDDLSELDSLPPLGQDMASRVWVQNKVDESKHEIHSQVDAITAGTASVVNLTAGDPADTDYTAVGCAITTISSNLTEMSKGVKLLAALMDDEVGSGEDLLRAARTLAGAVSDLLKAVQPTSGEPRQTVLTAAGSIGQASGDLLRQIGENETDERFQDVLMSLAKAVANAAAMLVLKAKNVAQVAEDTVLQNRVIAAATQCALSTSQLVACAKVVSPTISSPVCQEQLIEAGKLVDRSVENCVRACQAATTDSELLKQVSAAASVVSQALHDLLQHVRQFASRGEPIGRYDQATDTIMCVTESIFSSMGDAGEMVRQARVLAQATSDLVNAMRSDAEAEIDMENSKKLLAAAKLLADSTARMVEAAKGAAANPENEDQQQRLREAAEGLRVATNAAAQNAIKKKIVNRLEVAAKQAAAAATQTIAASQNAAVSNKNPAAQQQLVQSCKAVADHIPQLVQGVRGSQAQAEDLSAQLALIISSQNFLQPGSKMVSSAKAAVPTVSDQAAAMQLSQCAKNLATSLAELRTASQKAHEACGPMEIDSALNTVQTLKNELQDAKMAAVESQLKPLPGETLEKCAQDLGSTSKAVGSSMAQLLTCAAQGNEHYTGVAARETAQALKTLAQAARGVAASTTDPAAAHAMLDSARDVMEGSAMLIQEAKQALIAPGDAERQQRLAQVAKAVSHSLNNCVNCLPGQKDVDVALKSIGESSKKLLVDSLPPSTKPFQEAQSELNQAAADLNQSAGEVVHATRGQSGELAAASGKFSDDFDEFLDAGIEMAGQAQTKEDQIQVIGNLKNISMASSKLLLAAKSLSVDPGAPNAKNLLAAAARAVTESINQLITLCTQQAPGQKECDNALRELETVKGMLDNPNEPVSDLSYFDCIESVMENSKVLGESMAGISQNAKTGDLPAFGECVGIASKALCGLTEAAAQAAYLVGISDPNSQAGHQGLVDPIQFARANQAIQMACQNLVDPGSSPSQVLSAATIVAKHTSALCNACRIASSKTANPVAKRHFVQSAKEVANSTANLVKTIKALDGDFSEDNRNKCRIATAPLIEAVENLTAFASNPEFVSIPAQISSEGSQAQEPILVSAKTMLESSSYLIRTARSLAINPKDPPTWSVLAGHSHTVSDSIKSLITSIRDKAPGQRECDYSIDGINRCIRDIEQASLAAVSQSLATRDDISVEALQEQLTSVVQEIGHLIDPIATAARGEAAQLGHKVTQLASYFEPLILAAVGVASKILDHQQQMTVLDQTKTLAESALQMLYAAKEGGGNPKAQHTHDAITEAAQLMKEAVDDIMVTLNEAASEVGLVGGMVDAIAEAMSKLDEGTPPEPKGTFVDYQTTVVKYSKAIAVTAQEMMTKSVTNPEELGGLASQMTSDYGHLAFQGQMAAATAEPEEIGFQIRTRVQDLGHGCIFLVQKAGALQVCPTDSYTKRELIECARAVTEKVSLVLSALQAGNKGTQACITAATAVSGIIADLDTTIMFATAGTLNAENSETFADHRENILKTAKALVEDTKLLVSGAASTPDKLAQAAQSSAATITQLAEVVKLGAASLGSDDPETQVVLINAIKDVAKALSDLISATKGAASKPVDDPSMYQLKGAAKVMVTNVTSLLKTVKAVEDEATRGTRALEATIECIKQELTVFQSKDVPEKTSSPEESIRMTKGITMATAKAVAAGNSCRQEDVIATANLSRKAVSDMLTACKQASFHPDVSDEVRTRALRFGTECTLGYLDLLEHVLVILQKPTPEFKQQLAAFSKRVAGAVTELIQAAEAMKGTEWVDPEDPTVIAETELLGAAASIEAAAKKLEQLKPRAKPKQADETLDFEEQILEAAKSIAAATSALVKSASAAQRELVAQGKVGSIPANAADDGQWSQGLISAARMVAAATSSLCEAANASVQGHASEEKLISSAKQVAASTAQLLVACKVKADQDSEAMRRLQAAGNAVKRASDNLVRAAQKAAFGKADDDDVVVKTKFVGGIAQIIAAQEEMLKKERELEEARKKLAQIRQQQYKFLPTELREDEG
UniProt Q05397: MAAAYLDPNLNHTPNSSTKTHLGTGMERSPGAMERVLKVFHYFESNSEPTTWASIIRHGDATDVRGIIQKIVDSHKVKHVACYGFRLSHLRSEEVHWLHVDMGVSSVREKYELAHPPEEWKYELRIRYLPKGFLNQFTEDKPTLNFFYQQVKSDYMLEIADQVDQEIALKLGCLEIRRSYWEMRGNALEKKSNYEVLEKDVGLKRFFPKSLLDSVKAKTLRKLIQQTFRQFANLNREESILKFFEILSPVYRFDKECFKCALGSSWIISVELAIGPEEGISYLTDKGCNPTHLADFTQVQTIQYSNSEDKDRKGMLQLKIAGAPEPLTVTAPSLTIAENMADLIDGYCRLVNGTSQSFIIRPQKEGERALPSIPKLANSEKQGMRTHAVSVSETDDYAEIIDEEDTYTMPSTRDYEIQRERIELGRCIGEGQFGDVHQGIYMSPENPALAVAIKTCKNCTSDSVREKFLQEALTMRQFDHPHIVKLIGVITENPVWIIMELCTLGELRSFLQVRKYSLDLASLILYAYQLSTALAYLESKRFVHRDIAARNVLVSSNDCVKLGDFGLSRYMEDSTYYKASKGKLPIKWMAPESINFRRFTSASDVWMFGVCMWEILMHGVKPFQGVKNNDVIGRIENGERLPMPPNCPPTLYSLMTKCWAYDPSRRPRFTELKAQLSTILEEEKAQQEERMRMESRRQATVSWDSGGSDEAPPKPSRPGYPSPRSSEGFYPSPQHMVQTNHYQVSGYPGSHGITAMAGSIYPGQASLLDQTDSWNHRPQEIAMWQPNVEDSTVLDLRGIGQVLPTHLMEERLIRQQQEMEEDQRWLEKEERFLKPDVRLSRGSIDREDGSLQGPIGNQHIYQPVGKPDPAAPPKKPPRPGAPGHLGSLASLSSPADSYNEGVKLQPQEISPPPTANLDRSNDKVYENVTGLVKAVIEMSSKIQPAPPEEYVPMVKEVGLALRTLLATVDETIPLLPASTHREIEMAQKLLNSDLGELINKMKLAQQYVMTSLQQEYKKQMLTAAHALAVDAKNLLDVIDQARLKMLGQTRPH
UniProt Q8VI36: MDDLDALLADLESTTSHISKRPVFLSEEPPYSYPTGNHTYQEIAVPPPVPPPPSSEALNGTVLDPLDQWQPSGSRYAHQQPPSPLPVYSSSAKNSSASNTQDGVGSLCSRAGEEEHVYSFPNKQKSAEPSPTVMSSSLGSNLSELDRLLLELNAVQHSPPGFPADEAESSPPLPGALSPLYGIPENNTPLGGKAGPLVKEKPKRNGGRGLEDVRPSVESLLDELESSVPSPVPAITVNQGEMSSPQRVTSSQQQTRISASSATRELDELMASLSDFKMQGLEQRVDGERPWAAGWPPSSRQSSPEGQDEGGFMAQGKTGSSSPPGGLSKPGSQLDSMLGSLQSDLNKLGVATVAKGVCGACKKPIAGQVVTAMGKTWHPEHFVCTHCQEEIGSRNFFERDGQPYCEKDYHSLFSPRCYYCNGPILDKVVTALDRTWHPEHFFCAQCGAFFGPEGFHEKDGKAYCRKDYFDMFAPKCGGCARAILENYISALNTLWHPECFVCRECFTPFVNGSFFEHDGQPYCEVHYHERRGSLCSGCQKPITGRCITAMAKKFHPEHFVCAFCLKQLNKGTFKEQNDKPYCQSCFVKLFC
UniProt Q64727: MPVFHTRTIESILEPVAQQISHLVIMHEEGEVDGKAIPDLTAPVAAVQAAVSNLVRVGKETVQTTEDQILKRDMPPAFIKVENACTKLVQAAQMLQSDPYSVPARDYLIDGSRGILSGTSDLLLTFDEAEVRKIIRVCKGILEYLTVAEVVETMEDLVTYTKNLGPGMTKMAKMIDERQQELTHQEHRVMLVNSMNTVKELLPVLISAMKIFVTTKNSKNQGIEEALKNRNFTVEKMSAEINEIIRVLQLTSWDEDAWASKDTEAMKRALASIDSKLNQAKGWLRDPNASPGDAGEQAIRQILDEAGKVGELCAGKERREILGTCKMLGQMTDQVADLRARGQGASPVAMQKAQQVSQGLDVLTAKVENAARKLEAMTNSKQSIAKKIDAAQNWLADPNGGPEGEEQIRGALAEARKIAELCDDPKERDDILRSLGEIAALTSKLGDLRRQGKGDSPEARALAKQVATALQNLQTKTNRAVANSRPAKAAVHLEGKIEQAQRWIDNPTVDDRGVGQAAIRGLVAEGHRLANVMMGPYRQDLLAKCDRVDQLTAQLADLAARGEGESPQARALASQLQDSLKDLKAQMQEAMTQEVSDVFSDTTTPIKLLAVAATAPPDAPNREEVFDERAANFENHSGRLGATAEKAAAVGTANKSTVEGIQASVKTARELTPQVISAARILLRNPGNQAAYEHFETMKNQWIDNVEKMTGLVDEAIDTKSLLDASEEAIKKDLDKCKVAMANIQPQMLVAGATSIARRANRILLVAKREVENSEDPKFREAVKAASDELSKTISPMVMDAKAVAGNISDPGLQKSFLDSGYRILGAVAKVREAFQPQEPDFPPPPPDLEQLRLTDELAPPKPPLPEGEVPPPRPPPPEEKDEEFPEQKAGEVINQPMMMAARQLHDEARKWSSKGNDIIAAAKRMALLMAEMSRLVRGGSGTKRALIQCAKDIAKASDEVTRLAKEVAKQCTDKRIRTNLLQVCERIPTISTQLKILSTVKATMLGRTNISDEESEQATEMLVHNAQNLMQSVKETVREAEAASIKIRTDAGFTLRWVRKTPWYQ
UniProt P49023: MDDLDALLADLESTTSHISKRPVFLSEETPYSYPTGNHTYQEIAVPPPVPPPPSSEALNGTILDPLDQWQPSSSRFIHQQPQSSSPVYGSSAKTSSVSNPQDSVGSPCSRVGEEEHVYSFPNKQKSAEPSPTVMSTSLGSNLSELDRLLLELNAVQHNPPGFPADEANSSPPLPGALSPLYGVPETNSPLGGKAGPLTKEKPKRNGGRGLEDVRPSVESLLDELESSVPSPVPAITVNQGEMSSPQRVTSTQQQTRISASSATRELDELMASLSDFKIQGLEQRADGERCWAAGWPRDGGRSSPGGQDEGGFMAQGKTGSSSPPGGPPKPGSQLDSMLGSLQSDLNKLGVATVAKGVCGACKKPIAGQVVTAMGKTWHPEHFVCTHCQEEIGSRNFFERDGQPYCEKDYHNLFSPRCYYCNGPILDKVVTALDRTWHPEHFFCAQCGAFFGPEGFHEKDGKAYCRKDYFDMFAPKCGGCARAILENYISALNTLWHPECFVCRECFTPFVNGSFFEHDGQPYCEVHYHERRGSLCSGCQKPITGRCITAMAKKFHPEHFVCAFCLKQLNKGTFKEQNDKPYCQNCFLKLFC

Tests used:
mCh-tensin1-cBAK (human) [1] = biological target: mCh-tensin1-cBAK (human) (UniProt Q9HBL0); experiment: mitochondrial targeting and recruitment assay; NIH3T3 cells co-expressing an mCherry- and cBAK-tagged bait at mitochondria with a GFP-tagged partner; co-localisation at mitochondria by fluorescence microscopy
mCh-tensin2-cBAK (human) = biological target: T1, mCh-tensin2-cBAK (human) (UniProt Q63HR2); experiment: as above
T1 sequence: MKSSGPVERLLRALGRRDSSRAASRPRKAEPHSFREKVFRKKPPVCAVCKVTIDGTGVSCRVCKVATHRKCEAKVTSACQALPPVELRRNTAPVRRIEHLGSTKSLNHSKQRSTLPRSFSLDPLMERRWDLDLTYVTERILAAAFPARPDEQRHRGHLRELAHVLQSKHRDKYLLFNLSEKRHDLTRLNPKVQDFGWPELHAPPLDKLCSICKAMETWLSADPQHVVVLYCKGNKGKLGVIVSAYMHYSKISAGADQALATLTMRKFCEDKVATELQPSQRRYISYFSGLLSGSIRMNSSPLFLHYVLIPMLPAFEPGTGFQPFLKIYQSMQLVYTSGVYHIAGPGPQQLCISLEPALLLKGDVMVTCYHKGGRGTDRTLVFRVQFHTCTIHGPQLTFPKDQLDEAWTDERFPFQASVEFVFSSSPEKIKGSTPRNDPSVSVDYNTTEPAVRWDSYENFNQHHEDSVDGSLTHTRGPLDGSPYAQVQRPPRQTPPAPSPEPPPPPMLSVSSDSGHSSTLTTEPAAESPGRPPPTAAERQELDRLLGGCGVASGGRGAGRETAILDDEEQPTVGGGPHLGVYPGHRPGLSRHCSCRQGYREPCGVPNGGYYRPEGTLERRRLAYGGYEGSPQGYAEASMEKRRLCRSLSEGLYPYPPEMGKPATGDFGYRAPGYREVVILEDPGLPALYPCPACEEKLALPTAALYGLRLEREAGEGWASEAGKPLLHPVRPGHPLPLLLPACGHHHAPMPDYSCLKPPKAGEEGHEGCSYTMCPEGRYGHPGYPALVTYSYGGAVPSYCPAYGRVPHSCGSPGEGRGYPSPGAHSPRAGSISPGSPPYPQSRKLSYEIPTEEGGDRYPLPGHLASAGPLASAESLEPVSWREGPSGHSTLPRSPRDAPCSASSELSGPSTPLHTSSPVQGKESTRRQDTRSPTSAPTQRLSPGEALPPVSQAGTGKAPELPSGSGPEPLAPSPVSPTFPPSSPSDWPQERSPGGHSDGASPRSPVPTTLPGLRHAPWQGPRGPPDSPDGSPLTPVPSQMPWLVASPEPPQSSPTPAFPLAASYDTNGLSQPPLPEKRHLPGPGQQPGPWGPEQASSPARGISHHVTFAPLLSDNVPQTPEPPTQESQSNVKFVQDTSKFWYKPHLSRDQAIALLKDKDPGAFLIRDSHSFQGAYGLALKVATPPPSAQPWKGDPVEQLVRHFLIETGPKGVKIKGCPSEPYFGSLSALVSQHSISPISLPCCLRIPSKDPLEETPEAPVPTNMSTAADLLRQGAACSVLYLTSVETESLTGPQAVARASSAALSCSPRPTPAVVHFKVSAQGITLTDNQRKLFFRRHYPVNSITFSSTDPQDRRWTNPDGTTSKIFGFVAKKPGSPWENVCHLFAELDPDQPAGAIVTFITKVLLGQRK

mCh-tensin1-cBAK (human) [2] = biological target: mCh-tensin1-cBAK (human) (UniProt Q9HBL0); experiment: mitochondrial targeting and recruitment assay; NIH3T3 cells expressing an mCherry- and cBAK-tagged tensin at mitochondria; endogenous partner immunostained
mCh-talinFL-cBAK = experiment: mitochondrial targeting and recruitment assay; NIH3T3 cells co-expressing an mCherry- and cBAK-tagged bait at mitochondria with a GFP-tagged partner; co-localisation at mitochondria by fluorescence microscopy

Molecule: GFP-talin1 (from UniProt P26039 1-2541)
binding (mCh-tensin1-cBAK (human) [1]): binds

Molecule: GFP-vinculin (from UniProt P12003-1)
binding (mCh-tensin1-cBAK (human) [1]): binds | binding (mCh-tensin2-cBAK (human)): no binding

Molecule: GFP-ILK (from UniProt Q13418 1-452)
binding (mCh-tensin1-cBAK (human) [1]): binds

Molecule: GFP-talin2 (from UniProt Q9Y4G6 1-2542)
binding (mCh-tensin1-cBAK (human) [1]): binds

Molecule: endogenous talin1 (from UniProt P26039 1-2541)
binding (mCh-tensin1-cBAK (human) [2]): binds

Molecule: GFP-FAK (from UniProt Q05397 1-1052)
binding (mCh-tensin1-cBAK (human) [1]): binds

B2: GFP-tensin3-FL∆H1 (protein, UniProt Q68CZ2)
chain: MEEGHGLDLTYITERIIAVSFPAGCSEESYLHNLQEVTRMLKSKHGDNYLVLNLSEKRYDLTKLNPKIMDVGWPELHAPPLDKMCTICKAQESWLNSNLQHVVVIHCRGGKGRIGVVISSYMHFTNVSASADQALDRFAMKKFYDDKVSALMQPSQKRYVQFLSGLLSGSVKMNASPLFLHFVILHGTPNFDTGGVCRPFLKLYQAMQPVYTSGIYNVGPENPSRICIVIEPAQLLKGDVMVKCYHKKYRSATRDVIFRLQFHTGAVQGYGLVFGKEDLDNASKDDRFPDYGKVELVFSATPEKIQGSEHLYNDHGVIVDYNTTDPLIRWDSYENLSADGEVLHTQGPVDGSLYAKVRKKSSSDPGIPGGPQAIPATNSPDHSDHTLSVSSDSGHSTASARTDKTEERLAPGTRRGLSAQEKAELDQLLSGFGLEDPGSSLKEMTDARSKYSGTRHVVPAQVHVNGDAALKDRETDILDDEMPHHDLHSVDSLGTLSSSEGPQSAHLGPFTCHKSSQNSLLSDGFGSNVGEDPQGTLVPDLGLGMDGPYERERTFGSREPKQPQPLLRKPSVSAQMQAYGQSSYSTQTWVRQQQMVVAHQYSFAPDGEARLVSRCPADNPGLVQAQPRVPLTPTRGTSSRVAVQRGVGSGPHPPDTQQPSPSKAFKPRFPGDQVVNGAGPELSTGPSPGPTFEPIPTHMNALGSQANGSVSPDSVGGGLRASSRLPDTGEGPSRATGRQGSSAEQPLGGRLRKLSLGQYDNDAGGQLPFSKCAWGKAGVDYAPNLPPFPSPADVKETMTPGYPQDLDIIDGRILSSKESMCSTPAFPVSPETPYVKTALRHPPFSPPEPPLSSPASQHKGGREPRSCPETLTHAVGMSESPIGPKSTMLRADASSTPSFQQAFASSCTISSNGPGQRRESSSSAERQWVESSPKPMVSLLGSGRPTGSPLSAEFSGTRKDSPVLSCFPPSELQAPFHSHELSLAEPPDSLAPPSSQAFLGFGTAPVGSGLPPEEDLGALLANSHGASPTPSIPLTATGAADNGFLSHNFLTVAPGHSSHHSPGLQGQGVTLPGQPPLPEKKRASEGDRSLGSVSPSSSGFSSPHSGSTISIPFPNVLPDFSKASEAASPLPDSPGDKLVIVKFVQDTSKFWYKADISREQAIAMLKDKEPGSFIVRDSHSFRGAYGLAMKVATPPPSVLQLNKKAGDLANELVRHFLIECTPKGVRLKGCSNEPYFGSLTALVCQHSITPLALPCKLLIPERDPLEEIAESSPQTAANSAAELLKQGAACNVWYLNSVEMESLTGHQAIQKALSITLVQEPPPVSTVVHFKVSAQGITLTDNQRKLFFRRHYPVNSVIFCALDPQDRKWIKDGPSSKVFGFVARKQGSATDNVCHLFAEHDPEQPASAIVNFVSKVMIGSPKKV
binding (mCh-talinFL-cBAK): no binding

Results, then the molecule that gave them:

binding (mCh-tensin1-cBAK (human) [2]): binds
Molecule: endogenous paxillin (from UniProt Q8VI36 1-591)

binding (mCh-tensin1-cBAK (human) [2]): binds
Molecule: endogenous vinculin (from UniProt Q64727 1-1066)

binding (mCh-tensin1-cBAK (human) [1]): binds
Molecule: GFP-paxillin (from UniProt P49023 1-591)

binding (mCh-tensin1-cBAK (human) [1]): binds
B1: GFP-KANK2 (protein, UniProt Q63ZY3 1-851)
chain: MAQVLHVPAPFPGTPGPASPPAFPAKDPDPPYSVETPYGYRLDLDFLKYVDDIEKGHTLRRVAVQRRPRLSSLPRGPGSWWTSTESLCSNASGDSRHSAYSYCGRGFYPQYGALETRGGFNPRVERTLLDARRRLEDQAATPTGLGSLTPSAAGSTASLVGVGLPPPTPRSSGLSTPVPPSAGHLAHVREQMAGALRKLRQLEEQVKLIPVLQVKLSVLQEEKRQLTVQLKSQKFLGHPTAGRGRSELCLDLPDPPEDPVALETRSVGTWVRERDLGMPDGEAALAAKVAVLETQLKKALQELQAAQARQADPQPQAWPPPDSPVRVDTVRVVEGPREVEVVASTAAGAPAQRAQSLEPYGTGLRALAMPGRPESPPVFRSQEVVETMCPVPAAATSNVHMVKKISITERSCDGAAGLPEVPAESSSSPPGSEVASLTQPEKSTGRVPTQEPTHREPTRQAASQESEEAGGTGGPPAGVRSIMKRKEEVADPTAHRRSLQFVGVNGGYESSSEDSSTAENISDNDSTENEAPEPRERVPSVAEAPQLRPAGTAAAKTSRQECQLSRESQHIPTAEGASGSNTEEEIRMELSPDLISACLALEKYLDNPNALTERELKVAYTTVLQEWLRLACRSDAHPELVRRHLVTFRAMSARLLDYVVNIADSNGNTALHYSVSHANFPVVQQLLDSGVCKVDKQNRAGYSPIMLTALATLKTQDDIETVLQLFRLGNINAKASQAGQTALMLAVSHGRVDVVKALLACEADVNVQDDDGSTALMCACEHGHKEIAGLLLAVPSCDISLTDRDGSTALMVALDAGQSEIASMLYSRMNIKCSFAPMSDDESPTSSSAEE
